According to PubChem BioAssay AID256 (DTP/NCI, 2004):
The list is a part of this screen's results and no random one: it gathers tests that were run many times, whatever their T/C, doses with no T/C, and many T/C values between a quarter and a half above the control. Other doses and runs of a compound stand elsewhere. T/C: endpoint of the treated group in % of that of the vehicle group. Some doses have a count of surviving animals in place of a T/C: the source holds a T/C of zero for them, seemingly a mark for toxic or unscored doses. Some doses without a T/C left all or most animals alive at the check, yet need not have been tolerated: the source hardly ever lists a survival T/C far under the control, and the zero likely stands for such cases as well. Counts of survivors are from the toxicity check (mostly the fifth day) where no day follows; animals may have died later. Schedule codes are those of the source, taken here to give the interval after Q, in days (D) or hours (H), and the number of doses after X. For survival time, the PubChem record calls one and a half times the control and up active, and a quarter to a half above the control has no call in these data; cut-offs in other NCI protocols can differ. Counts like (3×) give the number of equal values in this list. Some T/C values carry the count of animals alive at the toxicity check (mostly the fifth day); without a count, all were alive then. Some doses were run more than once; the values are given in rising order. Some schedule codes hold Z or #, which are not explained here.

Tested on: CD2F1 mice, L1210 leukemia ip, survival T/C
Assay: NCI In Vivo Anticancer Drug Screen. Data for tumor model L1210 Leukemia (intraperitoneal) in CD2F1 (CDF1) mice
Settings: vehicle: saline, higher T/C = longer survival
Summary of the method: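 Activity against a transplanted murine tumor was judged by comparing the compound group with a vehicle group. The outcome in the treated animals was divided by that in the controls.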

[1] = T/C endpoint: median survival time, dose: 80.0 mg/kg/injection, schedule: Q04DX003 (ip)

In the case of `[N-]=[N+]=CC(=O)CCC(N)C(=O)O` (stereo unspecified), the T/C (T/C endpoint: mean survival time, dose: 0.05 mg/kg/injection, schedule: Q01DX009 (ip)) is reported as 133 % of control, the T/C (T/C endpoint: mean survival time, dose: 0.1 mg/kg/injection, schedule: Q01DX007 (ip)) is reported as 130 % of control and the T/C (T/C endpoint: mean survival time, dose: 0.1 mg/kg/injection, schedule: Q01DX009 (ip), evaluated on day 30) is reported as 134, 146, 158 % of control. The T/C (T/C endpoint: mean survival time, dose: 0.1 mg/kg/injection, schedule: Q01DX009 (ip), evaluated on day 60) was 127 % of control, the T/C (T/C endpoint: mean survival time, dose: 0.1 mg/kg/injection, schedule: Q01DX009 (oral)) was 125 % of control and the T/C (T/C endpoint: mean survival time, dose: 0.1 mg/kg/injection, schedule: Q01DX009 (sc)) was 130 % of control. The T/C (T/C endpoint: mean survival time, dose: 0.2 mg/kg/injection, schedule: Q01DX007 (ip)) was 140 % of control, the T/C (T/C endpoint: mean survival time, dose: 0.2 mg/kg/injection, schedule: Q01DX009 (ip), evaluated on day 30) was 136, 138, 172 % of control and the T/C (T/C endpoint: mean survival time, dose: 0.2 mg/kg/injection, schedule: Q01DX009 (ip), evaluated on day 60) was 147 % of control. For the same molecule, the T/C (T/C endpoint: mean survival time, dose: 0.2 mg/kg/injection, schedule: Q01DX009 (sc)) was 135 % of control, the T/C (T/C endpoint: mean survival time, dose: 0.4 mg/kg/injection, schedule: Q01DX007 (ip)) was 130 % of control and the T/C (T/C endpoint: mean survival time, dose: 0.4 mg/kg/injection, schedule: Q01DX009 (ip), evaluated on day 30) was 93 [5 of 6 alive], 131, 189 % of control. The T/C (T/C endpoint: mean survival time, dose: 0.4 mg/kg/injection, schedule: Q01DX009 (ip), evaluated on day 60) was 123 % of control, the T/C (T/C endpoint: mean survival time, dose: 0.4 mg/kg/injection, schedule: Q01DX009 (oral)) was 138 % of control and the T/C (T/C endpoint: mean survival time, dose: 0.4 mg/kg/injection, schedule: Q01DX009 (sc)) was 138 % of control. The T/C (T/C endpoint: mean survival time, dose: 0.4 mg/kg/injection, schedule: Q03DX003 (ip)) was 128 % of control, the T/C (T/C endpoint: mean survival time, dose: 0.4 mg/kg/injection, schedule: Q04DX003 (ip)) was 127 % of control and the T/C (T/C endpoint: mean survival time, dose: 0.8 mg/kg/injection, schedule: Q01DX009 (oral)) was 136 % of control. For the same molecule, the T/C (T/C endpoint: mean survival time, dose: 0.8 mg/kg/injection, schedule: Q03HX016 (ip)) was 145 % of control [7 of 10 alive], the survivor count (T/C endpoint: mean survival time, dose: 1.6 mg/kg/injection, schedule: Q03HX008 (ip)) was 6 of 10 and the T/C (T/C endpoint: mean survival time, dose: 1.6 mg/kg/injection, schedule: Q03HX016 (ip)) was 145 % of control [7 of 10 alive]. The survivor count (T/C endpoint: mean survival time, dose: 3.1 mg/kg/injection, schedule: Q03HX008 (ip)) was 3 of 10, the survivor count (T/C endpoint: mean survival time, dose: 3.1 mg/kg/injection, schedule: Q03HX024 (ip)) was 8 of 10 and the T/C (T/C endpoint: mean survival time, dose: 3.1 mg/kg/injection, schedule: Q04DX003 (ip)) was 149 % of control. For the same molecule, the survivor count (T/C endpoint: mean survival time, dose: 6.2 mg/kg/injection, schedule: Q03HX024 (ip)) was 6 of 10, the survivor count (T/C endpoint: mean survival time, dose: 6.25 mg/kg/injection, schedule: Q03HX016 (ip)) was 5 of 10 and the T/C (T/C endpoint: mean survival time, dose: 6.25 mg/kg/injection, schedule: Q08DX002 (ip)) was 127 % of control. The T/C (T/C endpoint: mean survival time, dose: 12.5 mg/kg/injection, schedule: Q01DX001 (ip)) was 139 % of control, the T/C (T/C endpoint: mean survival time, dose: 12.5 mg/kg/injection, schedule: Q01DX001 (sc)) was 135 % of control and the survivor count (T/C endpoint: mean survival time, dose: 12.5 mg/kg/injection, schedule: Q03HX008 (ip)) was 6 of 10. The survivor count (T/C endpoint: mean survival time, dose: 12.5 mg/kg/injection, schedule: Q03HX016 (ip)) was 3 of 10, the T/C (T/C endpoint: mean survival time, dose: 12.5 mg/kg/injection, schedule: Q04DX003 (ip)) was 144 % of control and the T/C (T/C endpoint: mean survival time, dose: 12.5 mg/kg/injection, schedule: Q08DX002 (ip)) was 138 % of control. The T/C (T/C endpoint: mean survival time, dose: 25.0 mg/kg/injection, schedule: Q01DX001 (ip)) was 144 % of control, the T/C (T/C endpoint: mean survival time, dose: 25.0 mg/kg/injection, schedule: Q01DX001 (oral)) was 131 % of control and the T/C (T/C endpoint: mean survival time, dose: 25.0 mg/kg/injection, schedule: Q01DX001 (sc)) was 133 % of control. For the same molecule, the survivor count (T/C endpoint: mean survival time, dose: 25.0 mg/kg/injection, schedule: Q03HX008 (ip)) was 4 of 10, the T/C (T/C endpoint: mean survival time, dose: 50.0 mg/kg/injection, schedule: Q01DX001 (oral)) was 137 % of control and the T/C (T/C endpoint: mean survival time, dose: 50.0 mg/kg/injection, schedule: Q01DX001 (sc)) was 141 % of control. For the same molecule, the T/C (T/C endpoint: mean survival time, dose: 100.0 mg/kg/injection, schedule: Q01DX001 (sc)) was 130 % of control, the T/C (T/C endpoint: mean survival time, dose: 200.0 mg/kg/injection, schedule: Q01DX001 (ip)) was 137 % of control and the survivor count (T/C endpoint: mean survival time, dose: 400.0 mg/kg/injection, schedule: Q01DX001 (oral)) was 3 of 10. For the same molecule, the T/C (T/C endpoint: mean survival time, dose: 100.0 micrograms/kg/injection, schedule: Q01DX Z (ip)) was 125 % of control, the T/C (T/C endpoint: mean survival time, dose: 187.5 micrograms/kg/injection, schedule: Q01DX009 (ip)) was 125 % of control and the survivor count (T/C endpoint: mean survival time, dose: 375.0 micrograms/kg/injection, schedule: Q01DX009 (ip)) was 6 of 6. For the same molecule, the survivor count (T/C endpoint: mean survival time, dose: 750.0 micrograms/kg/injection, schedule: Q01DX009 (ip)) was 6 of 6, the survivor count (T/C endpoint: mean survival time, dose: 1500.0 micrograms/kg/injection, schedule: Q01DX009 (ip)) was 6 of 6 and the survivor count (T/C endpoint: mean survival time, dose: 3000.0 micrograms/kg/injection, schedule: Q01DX009 (ip)) was 6 of 6. The T/C (T/C endpoint: median survival time, dose: 0.05 mg/kg/injection, schedule: Q01DX009 (ip), evaluated on day 5) was 104, 121, 129 % of control, the T/C (T/C endpoint: median survival time, dose: 0.05 mg/kg/injection, schedule: Q01DX009 (ip), evaluated on day 30) was 122 % of control and the T/C (T/C endpoint: median survival time, dose: 0.1 mg/kg/injection, schedule: Q01DX009 (ip), evaluated on day 5) was 113, 136, 140 % of control. The T/C (T/C endpoint: median survival time, dose: 0.1 mg/kg/injection, schedule: Q01DX009 (ip), evaluated on day 30) was 133 % of control, the T/C (T/C endpoint: median survival time, dose: 0.1 mg/kg/injection, schedule: Q01DX009 (ip), evaluated on day 60) was 154 % of control and the T/C (T/C endpoint: median survival time, dose: 0.13 mg/kg/injection, schedule: Q01DX009 (ip)) was 135 % of control. For the same molecule, the T/C (T/C endpoint: median survival time, dose: 0.2 mg/kg/injection, schedule: Q01DX009 (ip), evaluated on day 5) was 116, 135, 144 % of control, the T/C (T/C endpoint: median survival time, dose: 0.2 mg/kg/injection, schedule: Q01DX009 (ip), evaluated on day 30) was 111 % of control and the T/C (T/C endpoint: median survival time, dose: 0.2 mg/kg/injection, schedule: Q01DX009 (ip), evaluated on day 60) was 129 % of control. The T/C (T/C endpoint: median survival time, dose: 0.4 mg/kg/injection, schedule: Q01DX009 (ip), evaluated on day 5) was 124, 145, 147 % of control, the T/C (T/C endpoint: median survival time, dose: 0.4 mg/kg/injection, schedule: Q01DX009 (ip), evaluated on day 30) was 116 % of control and the T/C (T/C endpoint: median survival time, dose: 0.63 mg/kg/injection, schedule: Q04DX003 (ip)) was 129 and 131 % of control. The survivor count (T/C endpoint: median survival time, dose: 0.76 mg/kg/injection, schedule: Q01DX009 (ip)) was 9 of 10, the T/C (T/C endpoint: median survival time, dose: 1.25 mg/kg/injection, schedule: Q04DX003 (ip)) was 133 % of control (2×) and the survivor count (T/C endpoint: median survival time, dose: 1.56 mg/kg/injection, schedule: Q01DX009 (ip)) was 4 of 10. For the same molecule, the survivor count (T/C endpoint: median survival time, dose: 3.12 mg/kg/injection, schedule: Q01DX009 (ip)) was 6 of 6, the survivor count (T/C endpoint: median survival time, dose: 3.13 mg/kg/injection, schedule: Q01DX009 (ip)) was 7 of 10 and the survivor count (T/C endpoint: median survival time, dose: 6.25 mg/kg/injection, schedule: Q01DX009 (ip)) was 2 of 6. The survivor count (T/C endpoint: median survival time, dose: 12.5 mg/kg/injection, schedule: Q01DX009 (ip)) was 0 of 6, the T/C (T/C endpoint: median survival time, dose: 25.0 mg/kg/injection, schedule: Q01DX001 (ip), evaluated on day 5) was 129 % of control and the T/C (T/C endpoint: median survival time, dose: 25.0 mg/kg/injection, schedule: Q01DX001 (ip), evaluated on day 60) was 129 % of control [9 of 10 alive]. For the same molecule, the survivor count (T/C endpoint: median survival time, dose: 25.0 mg/kg/injection, schedule: Q01DX009 (ip)) was 0 of 6, the T/C (T/C endpoint: median survival time, dose: 50.0 mg/kg/injection, schedule: Q01DX001 (ip), evaluated on day 5) was 136 % of control and the T/C (T/C endpoint: median survival time, dose: 50.0 mg/kg/injection, schedule: Q01DX001 (ip), evaluated on day 60) was 136 % of control. For the same molecule, the survivor count (T/C endpoint: median survival time, dose: 50.0 mg/kg/injection, schedule: Q01DX009 (ip)) was 0 of 6, the T/C [1] was 133 % of control and the survivor count [1] was 6 of 8. For the same molecule, the survivor count (T/C endpoint: median survival time, dose: 100.0 mg/kg/injection, schedule: Q01DX009 (ip)) was 0 of 6.
